Results reported in the supplement of paper PMC12823440, “Inhibitors supercharge kinase turnover through native proteolytic circuits” (Nature, 2025).
This is one part of the list. Hit calls seldom repeat between salt and free forms of one compound.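 Kinases were expressed as nanoluciferase fusions in K562 cells and luminescence was read every 4 h between 2 and 18 h as percent of control, DMSO set to 100% and a positive control to 0%. A time point counts as decreased when the signal drops significantly (2 sigma). The hit call is the authors' own, does not follow from the count of time points alone, and its rule is not shown.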

Chains of the proteins cited; added tags and fusions are not shown. Lines headed by an entry give the natural chain unless they say otherwise; changes in a name come on top.
UniProt P00519, whole entry: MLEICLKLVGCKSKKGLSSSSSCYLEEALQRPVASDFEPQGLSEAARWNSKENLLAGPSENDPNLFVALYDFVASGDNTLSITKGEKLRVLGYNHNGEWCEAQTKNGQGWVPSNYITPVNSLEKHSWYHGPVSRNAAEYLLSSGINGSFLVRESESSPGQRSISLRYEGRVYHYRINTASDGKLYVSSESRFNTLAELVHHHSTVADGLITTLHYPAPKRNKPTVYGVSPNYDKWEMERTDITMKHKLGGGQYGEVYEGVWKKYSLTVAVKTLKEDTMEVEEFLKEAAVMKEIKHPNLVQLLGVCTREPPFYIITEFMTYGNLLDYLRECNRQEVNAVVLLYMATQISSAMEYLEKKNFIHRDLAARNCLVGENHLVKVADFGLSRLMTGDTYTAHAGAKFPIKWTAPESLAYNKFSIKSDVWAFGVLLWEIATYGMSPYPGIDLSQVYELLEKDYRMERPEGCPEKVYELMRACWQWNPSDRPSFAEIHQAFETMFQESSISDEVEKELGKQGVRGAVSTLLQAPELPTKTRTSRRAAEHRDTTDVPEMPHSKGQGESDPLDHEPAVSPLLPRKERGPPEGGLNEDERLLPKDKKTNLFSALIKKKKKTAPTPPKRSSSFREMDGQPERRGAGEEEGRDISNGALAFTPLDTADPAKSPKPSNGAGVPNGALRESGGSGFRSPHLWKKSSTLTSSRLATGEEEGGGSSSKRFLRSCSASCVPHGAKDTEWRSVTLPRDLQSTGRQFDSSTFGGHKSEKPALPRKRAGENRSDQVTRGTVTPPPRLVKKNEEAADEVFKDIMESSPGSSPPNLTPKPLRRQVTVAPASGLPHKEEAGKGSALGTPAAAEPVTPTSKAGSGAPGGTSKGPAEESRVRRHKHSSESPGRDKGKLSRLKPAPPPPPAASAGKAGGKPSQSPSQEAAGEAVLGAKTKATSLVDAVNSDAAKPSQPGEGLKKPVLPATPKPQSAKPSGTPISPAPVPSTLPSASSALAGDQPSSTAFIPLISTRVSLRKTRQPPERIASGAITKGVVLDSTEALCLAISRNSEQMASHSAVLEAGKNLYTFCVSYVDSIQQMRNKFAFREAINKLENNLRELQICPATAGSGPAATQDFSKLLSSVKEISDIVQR
UniProt P31749: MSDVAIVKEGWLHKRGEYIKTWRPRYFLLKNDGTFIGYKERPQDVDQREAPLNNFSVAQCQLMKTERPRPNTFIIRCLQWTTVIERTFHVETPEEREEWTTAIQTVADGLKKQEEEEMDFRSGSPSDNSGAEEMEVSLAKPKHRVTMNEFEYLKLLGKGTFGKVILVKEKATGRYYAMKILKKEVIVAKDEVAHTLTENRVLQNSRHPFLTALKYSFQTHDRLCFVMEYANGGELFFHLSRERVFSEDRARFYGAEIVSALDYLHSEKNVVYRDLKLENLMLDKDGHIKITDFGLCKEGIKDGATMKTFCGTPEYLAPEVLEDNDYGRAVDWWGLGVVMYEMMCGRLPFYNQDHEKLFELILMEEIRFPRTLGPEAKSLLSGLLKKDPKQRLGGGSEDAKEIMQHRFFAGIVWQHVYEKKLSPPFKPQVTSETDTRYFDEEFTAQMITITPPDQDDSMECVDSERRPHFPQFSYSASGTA
UniProt Q9UM73: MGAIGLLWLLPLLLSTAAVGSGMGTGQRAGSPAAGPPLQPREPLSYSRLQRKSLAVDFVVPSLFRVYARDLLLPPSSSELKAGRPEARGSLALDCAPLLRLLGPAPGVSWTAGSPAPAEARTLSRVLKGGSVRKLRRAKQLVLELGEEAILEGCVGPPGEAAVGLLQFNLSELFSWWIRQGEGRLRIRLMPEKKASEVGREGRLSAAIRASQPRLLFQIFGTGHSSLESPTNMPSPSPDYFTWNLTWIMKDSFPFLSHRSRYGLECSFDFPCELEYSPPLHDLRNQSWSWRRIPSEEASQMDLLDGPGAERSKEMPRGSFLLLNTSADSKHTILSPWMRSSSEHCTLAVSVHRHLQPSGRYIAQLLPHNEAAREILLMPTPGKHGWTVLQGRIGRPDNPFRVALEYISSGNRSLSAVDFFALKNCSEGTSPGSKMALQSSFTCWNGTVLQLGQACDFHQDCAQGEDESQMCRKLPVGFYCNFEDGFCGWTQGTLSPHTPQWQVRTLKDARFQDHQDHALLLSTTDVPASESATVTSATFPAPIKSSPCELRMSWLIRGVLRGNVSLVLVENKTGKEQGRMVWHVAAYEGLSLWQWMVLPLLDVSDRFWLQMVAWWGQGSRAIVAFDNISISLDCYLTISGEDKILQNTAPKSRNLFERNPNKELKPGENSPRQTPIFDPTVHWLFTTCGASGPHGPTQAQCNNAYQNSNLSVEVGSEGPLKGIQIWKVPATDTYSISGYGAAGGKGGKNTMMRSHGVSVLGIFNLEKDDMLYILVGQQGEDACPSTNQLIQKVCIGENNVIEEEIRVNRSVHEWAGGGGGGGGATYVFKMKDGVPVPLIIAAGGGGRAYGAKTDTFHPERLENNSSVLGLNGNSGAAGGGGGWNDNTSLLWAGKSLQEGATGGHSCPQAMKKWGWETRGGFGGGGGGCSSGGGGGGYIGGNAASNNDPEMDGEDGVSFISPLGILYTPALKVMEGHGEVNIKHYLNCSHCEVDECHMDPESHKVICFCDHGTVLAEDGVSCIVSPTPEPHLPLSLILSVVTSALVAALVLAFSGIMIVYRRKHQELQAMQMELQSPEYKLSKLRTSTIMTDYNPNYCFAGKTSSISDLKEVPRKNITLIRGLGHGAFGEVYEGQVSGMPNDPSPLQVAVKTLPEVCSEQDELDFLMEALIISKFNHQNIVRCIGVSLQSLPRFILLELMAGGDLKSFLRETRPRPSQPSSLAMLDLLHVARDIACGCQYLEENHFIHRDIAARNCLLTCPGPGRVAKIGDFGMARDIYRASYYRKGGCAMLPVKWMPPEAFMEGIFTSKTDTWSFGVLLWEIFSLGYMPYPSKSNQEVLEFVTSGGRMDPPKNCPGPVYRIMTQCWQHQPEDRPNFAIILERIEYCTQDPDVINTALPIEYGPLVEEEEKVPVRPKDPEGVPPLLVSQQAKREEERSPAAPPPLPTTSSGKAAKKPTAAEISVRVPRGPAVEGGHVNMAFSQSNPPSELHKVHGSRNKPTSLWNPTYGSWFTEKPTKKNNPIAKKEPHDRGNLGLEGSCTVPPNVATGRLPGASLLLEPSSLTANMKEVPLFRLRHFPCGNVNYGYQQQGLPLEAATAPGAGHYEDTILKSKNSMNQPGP
UniProt P10398: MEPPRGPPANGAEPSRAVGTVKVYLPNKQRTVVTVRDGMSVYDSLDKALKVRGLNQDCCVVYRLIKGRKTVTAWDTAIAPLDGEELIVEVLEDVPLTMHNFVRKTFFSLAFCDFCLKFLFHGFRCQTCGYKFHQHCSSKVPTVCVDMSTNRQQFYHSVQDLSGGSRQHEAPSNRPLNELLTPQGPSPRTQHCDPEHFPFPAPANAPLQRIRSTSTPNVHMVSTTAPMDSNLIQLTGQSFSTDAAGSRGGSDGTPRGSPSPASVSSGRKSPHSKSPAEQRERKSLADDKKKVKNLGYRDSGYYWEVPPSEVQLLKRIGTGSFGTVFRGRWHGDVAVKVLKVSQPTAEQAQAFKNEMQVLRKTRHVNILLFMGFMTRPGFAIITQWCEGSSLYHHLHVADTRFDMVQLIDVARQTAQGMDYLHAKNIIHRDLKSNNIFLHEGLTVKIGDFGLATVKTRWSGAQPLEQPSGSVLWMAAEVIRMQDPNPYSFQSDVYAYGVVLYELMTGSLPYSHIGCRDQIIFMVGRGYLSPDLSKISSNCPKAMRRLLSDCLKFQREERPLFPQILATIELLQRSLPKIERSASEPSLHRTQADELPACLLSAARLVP
UniProt O14965: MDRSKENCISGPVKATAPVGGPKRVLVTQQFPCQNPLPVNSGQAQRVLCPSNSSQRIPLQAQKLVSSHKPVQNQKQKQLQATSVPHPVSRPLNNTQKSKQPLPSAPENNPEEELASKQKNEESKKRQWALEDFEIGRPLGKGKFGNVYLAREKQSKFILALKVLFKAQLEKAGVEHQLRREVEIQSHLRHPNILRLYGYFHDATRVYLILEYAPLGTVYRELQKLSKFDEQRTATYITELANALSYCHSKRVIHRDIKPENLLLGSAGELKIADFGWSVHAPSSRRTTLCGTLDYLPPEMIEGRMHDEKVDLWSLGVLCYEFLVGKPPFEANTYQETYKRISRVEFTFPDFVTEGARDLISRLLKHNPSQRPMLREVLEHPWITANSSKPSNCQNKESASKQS
UniProt Q96GD4, whole entry: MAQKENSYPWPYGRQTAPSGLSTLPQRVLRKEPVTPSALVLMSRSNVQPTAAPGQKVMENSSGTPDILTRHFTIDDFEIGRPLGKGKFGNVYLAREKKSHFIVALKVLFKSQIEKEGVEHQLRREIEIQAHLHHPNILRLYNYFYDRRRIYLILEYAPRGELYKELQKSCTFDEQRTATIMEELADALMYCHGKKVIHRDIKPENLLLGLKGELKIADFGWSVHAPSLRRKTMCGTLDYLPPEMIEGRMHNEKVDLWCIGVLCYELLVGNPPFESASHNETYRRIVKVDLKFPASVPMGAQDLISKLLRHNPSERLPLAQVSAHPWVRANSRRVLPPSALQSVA
UniProt Q9UQB9: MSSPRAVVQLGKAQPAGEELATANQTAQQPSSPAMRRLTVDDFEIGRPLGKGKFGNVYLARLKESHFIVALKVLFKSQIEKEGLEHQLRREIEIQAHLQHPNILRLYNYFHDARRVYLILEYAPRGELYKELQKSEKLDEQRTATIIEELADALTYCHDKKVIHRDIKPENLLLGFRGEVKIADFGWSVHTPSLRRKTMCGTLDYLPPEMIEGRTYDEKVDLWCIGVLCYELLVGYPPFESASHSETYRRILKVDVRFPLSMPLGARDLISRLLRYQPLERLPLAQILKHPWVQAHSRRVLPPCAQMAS
UniProt Q9UQM7, whole entry: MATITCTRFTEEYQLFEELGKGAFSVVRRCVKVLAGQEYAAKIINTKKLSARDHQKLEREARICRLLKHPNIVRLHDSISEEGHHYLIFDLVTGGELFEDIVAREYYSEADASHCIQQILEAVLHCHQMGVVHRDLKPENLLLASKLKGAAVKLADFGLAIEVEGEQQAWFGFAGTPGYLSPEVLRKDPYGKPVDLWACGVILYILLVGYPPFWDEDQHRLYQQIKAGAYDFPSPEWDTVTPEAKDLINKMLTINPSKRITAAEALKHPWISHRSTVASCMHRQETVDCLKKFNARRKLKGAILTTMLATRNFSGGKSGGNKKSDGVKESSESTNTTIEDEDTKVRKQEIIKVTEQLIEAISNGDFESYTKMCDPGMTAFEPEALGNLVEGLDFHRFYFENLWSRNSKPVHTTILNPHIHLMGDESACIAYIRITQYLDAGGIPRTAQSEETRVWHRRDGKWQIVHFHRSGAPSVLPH
UniProt Q13555: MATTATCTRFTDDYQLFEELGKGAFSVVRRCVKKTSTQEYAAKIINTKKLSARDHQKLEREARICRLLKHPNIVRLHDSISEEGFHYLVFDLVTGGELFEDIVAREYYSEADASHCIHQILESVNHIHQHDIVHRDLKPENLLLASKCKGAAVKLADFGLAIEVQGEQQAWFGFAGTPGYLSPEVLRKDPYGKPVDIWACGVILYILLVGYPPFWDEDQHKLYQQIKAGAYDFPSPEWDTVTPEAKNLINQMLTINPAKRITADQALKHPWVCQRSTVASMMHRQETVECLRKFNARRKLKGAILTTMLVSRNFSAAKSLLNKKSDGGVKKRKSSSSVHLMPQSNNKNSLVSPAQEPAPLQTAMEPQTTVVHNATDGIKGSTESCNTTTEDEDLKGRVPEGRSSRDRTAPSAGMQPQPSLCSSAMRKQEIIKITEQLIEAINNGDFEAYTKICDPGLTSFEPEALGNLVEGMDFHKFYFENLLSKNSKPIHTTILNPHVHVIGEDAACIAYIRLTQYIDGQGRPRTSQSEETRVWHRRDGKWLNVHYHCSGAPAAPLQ
UniProt Q15131: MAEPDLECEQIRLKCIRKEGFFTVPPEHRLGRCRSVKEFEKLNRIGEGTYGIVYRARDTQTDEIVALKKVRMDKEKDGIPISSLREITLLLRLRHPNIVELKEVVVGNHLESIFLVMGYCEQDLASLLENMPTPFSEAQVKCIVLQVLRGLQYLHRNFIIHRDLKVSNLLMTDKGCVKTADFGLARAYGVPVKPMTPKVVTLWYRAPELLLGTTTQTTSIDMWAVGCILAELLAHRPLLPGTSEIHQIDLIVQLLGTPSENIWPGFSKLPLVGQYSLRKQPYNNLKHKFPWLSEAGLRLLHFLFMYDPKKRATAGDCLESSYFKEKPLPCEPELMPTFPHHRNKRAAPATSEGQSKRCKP
UniProt Q00526: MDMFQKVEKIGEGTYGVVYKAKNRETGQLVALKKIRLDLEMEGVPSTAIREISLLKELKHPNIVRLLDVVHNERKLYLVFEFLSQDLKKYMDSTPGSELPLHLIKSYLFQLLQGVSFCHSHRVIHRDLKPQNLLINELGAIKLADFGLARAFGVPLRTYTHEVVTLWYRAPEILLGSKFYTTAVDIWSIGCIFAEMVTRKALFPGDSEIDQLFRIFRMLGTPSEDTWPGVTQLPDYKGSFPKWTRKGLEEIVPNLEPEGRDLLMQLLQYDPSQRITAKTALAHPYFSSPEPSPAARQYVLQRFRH

Experiments:
Assay in all cases: kinase-Nluc reporter destabilization hit call (1 = scored as downregulated) (binary); higher = compound decreases kinase abundance
Conditions in all cases: K562; 2-18 h
ABL1 = ABL1 (UniProt P00519)
AKT1 = AKT1 (UniProt P31749)
ALK = ALK (UniProt Q9UM73)
ARAF = ARAF (UniProt P10398)
AURKA = AURKA (UniProt O14965)
AURKB = AURKB (UniProt Q96GD4)
AURKC = AURKC (UniProt Q9UQB9)
BLK = BLK (UniProt P51451)
BMX = BMX (UniProt P51813)
BRAF = BRAF (UniProt P15056)
BRAF_V600E = test system: BRAF_V600E
BTK = BTK (UniProt Q06187)
CAMK2A = CAMK2A (UniProt Q9UQM7)
CAMK2G = CAMK2G (UniProt Q13555)
CDK10 = CDK10 (UniProt Q15131)
CDK3 = CDK3 (UniProt Q00526)
CDK4 = CDK4 (UniProt P11802)
CDK5 = CDK5 (UniProt Q00535)
CDK6 = CDK6 (UniProt Q00534)
CDK2 = CDK2 (UniProt P24941)

Row | SMILES | kinase-Nluc reporter destabilization hit call (ABL1) | kinase-Nluc reporter destabilization hit call (AKT1) | kinase-Nluc reporter destabilization hit call (ALK) | kinase-Nluc reporter destabilization hit call (ARAF) | kinase-Nluc reporter destabilization hit call (AURKA) | kinase-Nluc reporter destabilization hit call (AURKB) | kinase-Nluc reporter destabilization hit call (AURKC) | kinase-Nluc reporter destabilization hit call (BLK) | kinase-Nluc reporter destabilization hit call (BMX) | kinase-Nluc reporter destabilization hit call (BRAF) | kinase-Nluc reporter destabilization hit call (BRAF_V600E) | kinase-Nluc reporter destabilization hit call (BTK) | kinase-Nluc reporter destabilization hit call (CAMK2A) | kinase-Nluc reporter destabilization hit call (CAMK2G) | kinase-Nluc reporter destabilization hit call (CDK10) | kinase-Nluc reporter destabilization hit call (CDK3) | kinase-Nluc reporter destabilization hit call (CDK4) | kinase-Nluc reporter destabilization hit call (CDK5) | kinase-Nluc reporter destabilization hit call (CDK6) | kinase-Nluc reporter destabilization hit call (CDK2)
1 | Brc1c(Br)c(Br)c2n[nH]nc2c1Br (10 µM) | inactive: 0 | inactive: 0 | inactive: 0 | inactive: 0 | inactive: 0 | inactive: 0 | inactive: 0 | inactive: 0 | inactive: 0 | inactive: 0 | inactive: 0 | inactive: 0 | inactive: 0 | inactive: 0 | inactive: 0 | inactive: 0 | inactive: 0 | inactive: 0 | inactive: 0 | 
2 | N#Cc1ccc2[nH]c(O)c(-c3ccc(CN4CCOCC4)cn3)c2c1 (10 µM) | inactive: 0 | inactive: 0 | inactive: 0 | inactive: 0 | inactive: 0 | inactive: 0 | inactive: 0 | inactive: 0 | inactive: 0 | inactive: 0 | inactive: 0 |  | inactive: 0 | inactive: 0 | inactive: 0 | inactive: 0 | inactive: 0 | inactive: 0 | inactive: 0 | inactive: 0
3 | O=C1NCCc2[nH]c(-c3ccnc(-c4cnc5ccccc5c4)c3)cc21 (10 µM) | inactive: 0 | inactive: 0 | inactive: 0 | inactive: 0 | inactive: 0 | inactive: 0 | inactive: 0 | inactive: 0 | inactive: 0 | inactive: 0 | inactive: 0 |  | inactive: 0 | inactive: 0 | inactive: 0 | inactive: 0 | inactive: 0 | inactive: 0 | inactive: 0 | inactive: 0
4 | CC(=O)N1CCN(c2ccc(OCC3COC(Cn4ccnc4)(c4ccc(Cl)cc4Cl)O3)cc2)CC1 (centres undefined) [Ketoconazole] (2.5 µM) | inactive: 0 | inactive: 0 | inactive: 0 | inactive: 0 | inactive: 0 | inactive: 0 | inactive: 0 | inactive: 0 | inactive: 0 | inactive: 0 | inactive: 0 | inactive: 0 | inactive: 0 | inactive: 0 | inactive: 0 | inactive: 0 | inactive: 0 | inactive: 0 | inactive: 0 | inactive: 0
5 | CC[C@H](CO)Nc1nc(NCc2ccccc2)c2ncn(C(C)C)c2n1 [Seliciclib] (10 µM) | inactive: 0 | inactive: 0 | inactive: 0 | inactive: 0 | inactive: 0 | inactive: 0 | inactive: 0 | inactive: 0 | inactive: 0 | inactive: 0 | inactive: 0 | inactive: 0 | inactive: 0 | inactive: 0 | inactive: 0 |  | inactive: 0 |  | inactive: 0 | 
6 | COc1cc(C)c(Sc2cnc(NC(=O)c3ccc(CNC(C)C(C)(C)C)cc3)s2)cc1C(=O)N1CCN(C(C)=O)CC1 (centres undefined) (2.5 µM) | inactive: 0 | inactive: 0 | inactive: 0 | inactive: 0 | inactive: 0 | inactive: 0 | inactive: 0 | inactive: 0 | inactive: 0 | inactive: 0 | inactive: 0 | inactive: 0 | inactive: 0 | inactive: 0 | inactive: 0 | inactive: 0 | inactive: 0 | inactive: 0 | inactive: 0 | inactive: 0
7 | NS(=O)(=O)c1ccc(Nc2nc(OCC3CCCCC3)c3[nH]cnc3n2)cc1 (10 µM) | inactive: 0 | inactive: 0 | inactive: 0 | inactive: 0 | inactive: 0 | inactive: 0 | inactive: 0 | inactive: 0 | inactive: 0 | inactive: 0 | inactive: 0 | inactive: 0 | inactive: 0 | inactive: 0 | inactive: 0 | inactive: 0 | inactive: 0 | inactive: 0 | inactive: 0 | 
8 | Cc1c(NC(=O)c2cc3c(s2)CCCC3)cccc1-c1cn(C)c(=O)c(Nc2ccc([C@@H]3C(=O)N(C)CCN3C)cc2)n1 (10 µM) | inactive: 0 | inactive: 0 | inactive: 0 | inactive: 0 | inactive: 0 | inactive: 0 | inactive: 0 | inactive: 0 | inactive: 0 | inactive: 0 | inactive: 0 |  | inactive: 0 | inactive: 0 | inactive: 0 | inactive: 0 | inactive: 0 | inactive: 0 | inactive: 0 | inactive: 0
9 | COc1ccc(F)c(F)c1C(=O)c1cnc(NC2CCN(S(C)(=O)=O)CC2)nc1N (2.5 µM) | inactive: 0 | inactive: 0 | inactive: 0 | inactive: 0 | inactive: 0 | inactive: 0 | inactive: 0 | inactive: 0 | inactive: 0 | inactive: 0 | inactive: 0 | inactive: 0 | inactive: 0 | inactive: 0 | inactive: 0 | inactive: 0 | inactive: 0 | inactive: 0 | inactive: 0 | 
10 | CC(C)(/C=C(\C#N)C(=O)N1CCC[C@@H](n2nc(-c3ccc(Oc4ccccc4)cc3F)c3c(N)ncnc32)C1)N1CCN(C2COC2)CC1 (2.5 µM) | inactive: 0 | inactive: 0 | inactive: 0 | inactive: 0 | inactive: 0 | inactive: 0 | inactive: 0 | inactive: 0 | inactive: 0 | inactive: 0 | inactive: 0 |  | inactive: 0 | inactive: 0 | inactive: 0 | inactive: 0 | inactive: 0 | inactive: 0 | inactive: 0 | inactive: 0
11 | CN1CCN(c2ccc(Nc3cc(-c4cccc(-n5ccc6cc(C7CC7)cc(F)c6c5=O)c4CO)cn(C)c3=O)nc2)CC1 (2.5 µM) | inactive: 0 | inactive: 0 | inactive: 0 | inactive: 0 | inactive: 0 | inactive: 0 | inactive: 0 | inactive: 0 | inactive: 0 | inactive: 0 | inactive: 0 |  | inactive: 0 | inactive: 0 | inactive: 0 | inactive: 0 | inactive: 0 | inactive: 0 | inactive: 0 | inactive: 0
12 | CCN1CCN(c2ccc(Nc3cc(N(C)C(=O)Nc4c(Cl)c(OC)cc(OC)c4Cl)ncn3)cc2)CC1 [Infigratinib] (10 µM) | inactive: 0 | inactive: 0 | inactive: 0 | inactive: 0 | inactive: 0 | inactive: 0 | inactive: 0 | inactive: 0 | inactive: 0 | inactive: 0 | inactive: 0 |  | inactive: 0 | inactive: 0 | inactive: 0 | inactive: 0 | inactive: 0 | inactive: 0 | inactive: 0 | inactive: 0
13 | C=CC(=O)N1CCC[C@@H](n2nc(-c3ccc(Oc4ccccc4)cc3)c(C(N)=O)c2N)C1 [Btk inhibitor 2] (10 µM) | inactive: 0 | inactive: 0 | inactive: 0 | inactive: 0 | inactive: 0 | inactive: 0 | inactive: 0 | inactive: 0 | inactive: 0 | inactive: 0 | inactive: 0 |  | inactive: 0 | inactive: 0 | inactive: 0 | inactive: 0 | inactive: 0 | inactive: 0 | inactive: 0 | inactive: 0
14 | Cn1c(=O)n(-c2ccc(C(C)(C)C#N)cc2)c2c3cc(-c4cnc5ccccc5c4)ccc3ncc21 [Dactolisib (Tosylate)] (10 µM) | active: 1 | inactive: 0 | inactive: 0 | inactive: 0 | inactive: 0 | inactive: 0 | inactive: 0 | inactive: 0 | inactive: 0 | active: 1 | inactive: 0 |  | inactive: 0 | inactive: 0 | inactive: 0 | inactive: 0 | inactive: 0 | inactive: 0 | inactive: 0 | inactive: 0
15 | O=C1c2ccccc2-c2n[nH]c3cccc1c23 (10 µM) | inactive: 0 | inactive: 0 | inactive: 0 | inactive: 0 | inactive: 0 | inactive: 0 | inactive: 0 | inactive: 0 | inactive: 0 | inactive: 0 | inactive: 0 | inactive: 0 | inactive: 0 | inactive: 0 | inactive: 0 | inactive: 0 | inactive: 0 |  | inactive: 0 | inactive: 0
16 | Cc1[nH]c(/C=C2\C(=O)Nc3ccc(S(=O)(=O)Cc4c(Cl)cccc4Cl)cc32)c(C)c1C(=O)N1CCC[C@@H]1CN1CCCC1 (2.5 µM) | inactive: 0 | inactive: 0 | inactive: 0 | inactive: 0 | inactive: 0 | inactive: 0 | inactive: 0 | inactive: 0 | inactive: 0 | inactive: 0 | inactive: 0 | inactive: 0 | inactive: 0 |  | inactive: 0 | inactive: 0 | inactive: 0 | inactive: 0 | inactive: 0 | inactive: 0
17 | O=C1NC(=NCc2cccs2)S/C1=C\c1ccc2ncccc2c1 (10 µM) | inactive: 0 | inactive: 0 | inactive: 0 | inactive: 0 | inactive: 0 | inactive: 0 | inactive: 0 | inactive: 0 | inactive: 0 | active: 1 | inactive: 0 | inactive: 0 | inactive: 0 | inactive: 0 | inactive: 0 | inactive: 0 | inactive: 0 | inactive: 0 | inactive: 0 | 
18 | COc1cc2ncnc(Nc3cccc(Cl)c3F)c2cc1OC(=O)N1CCN(C)C[C@H]1C [Zorifertinib] (10 µM) | inactive: 0 | inactive: 0 | inactive: 0 | inactive: 0 | inactive: 0 | inactive: 0 | inactive: 0 | inactive: 0 | inactive: 0 | inactive: 0 | inactive: 0 | inactive: 0 | inactive: 0 | inactive: 0 | inactive: 0 | inactive: 0 | inactive: 0 |  | inactive: 0 | inactive: 0
19 | CCCn1cnc2c(NCc3ccccc3)nc(NC(CC)CO)nc21 (centres undefined) [Ca2+ channel agonist 1] (2.5 µM) | inactive: 0 | inactive: 0 | inactive: 0 | inactive: 0 | inactive: 0 | inactive: 0 | inactive: 0 | inactive: 0 | inactive: 0 | inactive: 0 | inactive: 0 | inactive: 0 | inactive: 0 | inactive: 0 | inactive: 0 |  | inactive: 0 |  | inactive: 0 | 

Among those listed so far, these contain an aryl methoxy group:
Row | SMILES | kinase-Nluc reporter destabilization hit call (ABL1) | kinase-Nluc reporter destabilization hit call (AKT1) | kinase-Nluc reporter destabilization hit call (ALK) | kinase-Nluc reporter destabilization hit call (ARAF) | kinase-Nluc reporter destabilization hit call (AURKA) | kinase-Nluc reporter destabilization hit call (AURKB) | kinase-Nluc reporter destabilization hit call (AURKC) | kinase-Nluc reporter destabilization hit call (BLK) | kinase-Nluc reporter destabilization hit call (BMX) | kinase-Nluc reporter destabilization hit call (BRAF) | kinase-Nluc reporter destabilization hit call (BRAF_V600E) | kinase-Nluc reporter destabilization hit call (BTK) | kinase-Nluc reporter destabilization hit call (CAMK2A) | kinase-Nluc reporter destabilization hit call (CAMK2G) | kinase-Nluc reporter destabilization hit call (CDK10) | kinase-Nluc reporter destabilization hit call (CDK3) | kinase-Nluc reporter destabilization hit call (CDK4) | kinase-Nluc reporter destabilization hit call (CDK5) | kinase-Nluc reporter destabilization hit call (CDK6) | kinase-Nluc reporter destabilization hit call (CDK2)
6 | COc1cc(C)c(Sc2cnc(NC(=O)c3ccc(CNC(C)C(C)(C)C)cc3)s2)cc1C(=O)N1CCN(C(C)=O)CC1 (centres undefined) (2.5 µM) | inactive: 0 | inactive: 0 | inactive: 0 | inactive: 0 | inactive: 0 | inactive: 0 | inactive: 0 | inactive: 0 | inactive: 0 | inactive: 0 | inactive: 0 | inactive: 0 | inactive: 0 | inactive: 0 | inactive: 0 | inactive: 0 | inactive: 0 | inactive: 0 | inactive: 0 | inactive: 0
9 | COc1ccc(F)c(F)c1C(=O)c1cnc(NC2CCN(S(C)(=O)=O)CC2)nc1N (2.5 µM) | inactive: 0 | inactive: 0 | inactive: 0 | inactive: 0 | inactive: 0 | inactive: 0 | inactive: 0 | inactive: 0 | inactive: 0 | inactive: 0 | inactive: 0 | inactive: 0 | inactive: 0 | inactive: 0 | inactive: 0 | inactive: 0 | inactive: 0 | inactive: 0 | inactive: 0 | 
12 | CCN1CCN(c2ccc(Nc3cc(N(C)C(=O)Nc4c(Cl)c(OC)cc(OC)c4Cl)ncn3)cc2)CC1 [Infigratinib] (10 µM) | inactive: 0 | inactive: 0 | inactive: 0 | inactive: 0 | inactive: 0 | inactive: 0 | inactive: 0 | inactive: 0 | inactive: 0 | inactive: 0 | inactive: 0 |  | inactive: 0 | inactive: 0 | inactive: 0 | inactive: 0 | inactive: 0 | inactive: 0 | inactive: 0 | inactive: 0
18 | COc1cc2ncnc(Nc3cccc(Cl)c3F)c2cc1OC(=O)N1CCN(C)C[C@H]1C [Zorifertinib] (10 µM) | inactive: 0 | inactive: 0 | inactive: 0 | inactive: 0 | inactive: 0 | inactive: 0 | inactive: 0 | inactive: 0 | inactive: 0 | inactive: 0 | inactive: 0 | inactive: 0 | inactive: 0 | inactive: 0 | inactive: 0 | inactive: 0 | inactive: 0 |  | inactive: 0 | inactive: 0
